Measured values reported in patent publication US6491729B1.

Experiments:
[1] = tensile strength (load weight, displacement, stress, specific stress, strain at the maximum load point); conditions: undyed fabric of gray cotton goods
[2] = yellowness index, whiteness index and Lab values of undyed fabric, Example 9; conditions: gray cotton goods
[3] = tensile strength (load weight, displacement, stress, specific stress, strain at the maximum load point); conditions: dyed fabric of nylon
[4] = bursting strength and softness of fabric; conditions: undyed fabric of gray silk goods
[5] = bursting strength and softness of fabric; conditions: dyed fabric of wool; for bursting strength percentage of variation / softness percentage of variation: versus before dry-cleaned
[6] = tensile strength (load weight, displacement, stress, specific stress, strain at the maximum load point); conditions: dyed fabric of nylon/polyacrylonitrile
[7] = degree of shrinkage of fabric after dry-cleaning; conditions: dyed fabric of nylon
[8] = surface of dyed fabric observed by scanning electron microscope (SEM) after dry-cleaning; conditions: dyed fabric of nylon, enlarged 1500 times
[9] = tensile strength (load weight, displacement, stress, specific stress, strain at the maximum load point); conditions: undyed fabric of gray silk goods
[10] = as above; conditions: undyed fabric of gray polyester goods
[11] = as above; conditions: dyed fabric of polyester/cotton

Work on `ClC(Cl)=C(Cl)Cl` [perchloroethylene] yielded a displacement ([1]; dry-cleaned five times) of 15.89 mm, a load weight ([1]; dry-cleaned five times) of 23.13 kg and a specific stress ([1]; dry-cleaned five times) of 12.13 kg/L. For the same compound, the strain ([1]; dry-cleaned five times) was 7.94%, the stress ([1]; dry-cleaned five times) was 4.63 kg/mm^2 and the displacement ([1]; dry-cleaned one time) was 48.52 mm. For the same compound, the load weight ([1]; dry-cleaned one time) was 31.94 kg, the specific stress ([1]; dry-cleaned one time) was 31.94 kg/L and the strain ([1]; dry-cleaned one time) was 9.26%. It also gave a stress ([1]; dry-cleaned one time) of 6.39 kg/mm^2, a displacement ([1]; dry-cleaned two times) of 16.54 mm and a load weight ([1]; dry-cleaned two times) of 21.71 kg. The specific stress ([1]; dry-cleaned two times) was 21.71 kg/L, the strain ([1]; dry-cleaned two times) was 8.27% and the stress ([1]; dry-cleaned two times) was 4.34 kg/mm^2. It also gave an L ([2]; dry-cleaned five times) of 88.27, an a ([2]; dry-cleaned five times) of −0.14 and a b ([2]; dry-cleaned five times) of 1.8. It also gave a c ([2]; dry-cleaned five times) of 1.81, a h ([2]; dry-cleaned five times) of 94.57 and a ΔE ([2]; dry-cleaned five times) of 0.27. For the same compound, the ΔL ([2]; dry-cleaned five times) was 0.15, the Δa ([2]; dry-cleaned five times) was 0.14 and the Δb ([2]; dry-cleaned five times) was 0.19. For the same compound, the Δc ([2]; dry-cleaned five times) was 0.17, the Δh ([2]; dry-cleaned five times) was −0.16 and the L ([2]; dry-cleaned one time) was 87.59. For the same compound, the a ([2]; dry-cleaned one time) was −0.17, the b ([2]; dry-cleaned one time) was 1.81 and the c ([2]; dry-cleaned one time) was 1.81. It also gave a h ([2]; dry-cleaned one time) of 95.28, a ΔE ([2]; dry-cleaned one time) of 0.58 and a ΔL ([2]; dry-cleaned one time) of −0.54. For the same compound, the Δa ([2]; dry-cleaned one time) was 0.11, the Δb ([2]; dry-cleaned one time) was 0.19 and the Δc ([2]; dry-cleaned one time) was 0.18. The Δh ([2]; dry-cleaned one time) was −0.14, the L ([2]; dry-cleaned two times) was 88.43 and the a ([2]; dry-cleaned two times) was −0.16. It also gave a b ([2]; dry-cleaned two times) of 1.81, a c ([2]; dry-cleaned two times) of 1.81 and a h ([2]; dry-cleaned two times) of 95.15. For the same compound, the ΔE ([2]; dry-cleaned two times) was 0.37, the ΔL ([2]; dry-cleaned two times) was 0.3 and the Δa ([2]; dry-cleaned two times) was 0.12. It also gave a Δb ([2]; dry-cleaned two times) of 0.19, a Δc ([2]; dry-cleaned two times) of 0.17 and a Δh ([2]; dry-cleaned two times) of −0.14. The displacement ([3]; dry-cleaned five times) was 58.47 mm, the load weight ([3]; dry-cleaned five times) was 33.15 kg and the specific stress ([3]; dry-cleaned five times) was 33.15 kg/L. It also gave a strain ([3]; dry-cleaned five times) of 38.98%, a stress ([3]; dry-cleaned five times) of 4.72 kg/mm^2 and a displacement ([3]; dry-cleaned one time) of 54.12 mm. The load weight ([3]; dry-cleaned one time) was 29.36 kg, the specific stress ([3]; dry-cleaned one time) was 29.36 kg/L and the strain ([3]; dry-cleaned one time) was 36.08%. For the same compound, the stress ([3]; dry-cleaned one time) was 4.18 kg/mm^2, the displacement ([3]; dry-cleaned two times) was 52.12 mm and the load weight ([3]; dry-cleaned two times) was 31.84 kg. The specific stress ([3]; dry-cleaned two times) was 31.84 kg/L, the strain ([3]; dry-cleaned two times) was 34.74% and the stress ([3]; dry-cleaned two times) was 4.53 kg/mm^2. The bursting strength ([4]; dry-cleaned five times) was 11 kg · f/cm^2, the “bursting strength percentage of variation” value (from here on “bursting strength percentage”) ([4]; dry-cleaned five times) was −14.53% and the softness ([4]; dry-cleaned five times) was 1.8 cm. For the same compound, the “softness percentage of variation” value ([4]; dry-cleaned five times) was −25%, the bursting strength ([4]; dry-cleaned one time) was 11.75 kg · f/cm^2 and the “bursting strength percentage” value ([4]; dry-cleaned one time) was −8.7%. For the same compound, the softness ([4]; dry-cleaned one time) was 2.1 cm, the “softness percentage of variation” value ([4]; dry-cleaned one time) was −12.5% and the bursting strength ([4]; dry-cleaned two times) was 10.5 kg · f/cm^2. For the same compound, the “bursting strength percentage” value ([4]; dry-cleaned two times) was −18.41%, the softness ([4]; dry-cleaned two times) was 2 cm and the “softness percentage of variation” value ([4]; dry-cleaned two times) was −16.67%. For the same compound, the bursting strength ([5]; dry-cleaned five times) was 9.25 kg · f/cm^2, the softness ([5]; dry-cleaned five times) was 2 cm and the “bursting strength percentage” value ([5]; dry-cleaned five times) was −2.63%. The “softness percentage of variation” value ([5]; dry-cleaned five times) was −38.46%, the bursting strength ([5]; dry-cleaned one time) was 9.25 kg · f/cm^2 and the softness ([5]; dry-cleaned one time) was 2.5 cm. For the same compound, the “bursting strength percentage” value ([5]; dry-cleaned one time) was −2.63%, the “softness percentage of variation” value ([5]; dry-cleaned one time) was −23.08% and the bursting strength ([5]; dry-cleaned two times) was 9 kg · f/cm^2. For the same compound, the softness ([5]; dry-cleaned two times) was 2.2 cm, the “bursting strength percentage” value ([5]; dry-cleaned two times) was −5.26% and the “softness percentage of variation” value ([5]; dry-cleaned two times) was −32.3%. For the same compound, the displacement ([6]; dry-cleaned five times) was 57.66 mm, the load weight ([6]; dry-cleaned five times) was 9.67 kg and the specific stress ([6]; dry-cleaned five times) was 9.67 kg/L. The strain ([6]; dry-cleaned five times) was 38.44%, the stress ([6]; dry-cleaned five times) was 0.76 kg/mm^2 and the displacement ([6]; dry-cleaned one time) was 73 mm. It also gave a load weight ([6]; dry-cleaned one time) of 12.86 kg, a specific stress ([6]; dry-cleaned one time) of 12.86 kg/L and a strain ([6]; dry-cleaned one time) of 48.66%. For the same compound, the stress ([6]; dry-cleaned one time) was 1 kg/mm^2, the displacement ([6]; dry-cleaned two times) was 84.76 mm and the load weight ([6]; dry-cleaned two times) was 14.47 kg. It also gave a specific stress ([6]; dry-cleaned two times) of 14.47 kg/L, a strain ([6]; dry-cleaned two times) of 56.5% and a stress ([6]; dry-cleaned two times) of 1.13 kg/mm^2. For the same compound, the “the degree of shrinkage, warp sense” value ([7]; dry-cleaned five times) was 0%, the “the degree of shrinkage, weft sense” value ([7]; dry-cleaned five times) was 0% and the “the degree of shrinkage, warp sense” value ([7]; dry-cleaned one time) was 1%. The “the degree of shrinkage, weft sense” value ([7]; dry-cleaned one time) was 0%, the “the degree of shrinkage, warp sense” value ([7]; dry-cleaned two times) was 1% and the “the degree of shrinkage, weft sense” value ([7]; dry-cleaned two times) was 0%. For the same compound, the “surface of the dyed fabric observed by SEM” value [8] was “flayed”, the displacement ([9]; dry-cleaned five times) was 54.2 mm and the load weight ([9]; dry-cleaned five times) was 28.29 kg. It also gave a specific stress ([9]; dry-cleaned five times) of 28.29 kg/L, a strain ([9]; dry-cleaned five times) of 27.1% and a stress ([9]; dry-cleaned five times) of 5.14 kg/mm^2. For the same compound, the displacement ([9]; dry-cleaned one time) was 52.77 mm, the load weight ([9]; dry-cleaned one time) was 22.59 kg and the specific stress ([9]; dry-cleaned one time) was 22.59 kg/L. The strain ([9]; dry-cleaned one time) was 26.39%, the stress ([9]; dry-cleaned one time) was 4.11 kg/mm^2 and the displacement ([9]; dry-cleaned two times) was 64.41 mm. The load weight ([9]; dry-cleaned two times) was 23.81 kg, the specific stress ([9]; dry-cleaned two times) was 23.81 kg/L and the strain ([9]; dry-cleaned two times) was 33.7%. The stress ([9]; dry-cleaned two times) was 4.33 kg/mm^2, the displacement ([10]; dry-cleaned five times) was 54.62 mm and the load weight ([10]; dry-cleaned five times) was 36.66 kg. The specific stress ([10]; dry-cleaned five times) was 36.66 kg/L, the strain ([10]; dry-cleaned five times) was 27.31% and the stress ([10]; dry-cleaned five times) was 5.24 kg/mm^2. It also gave a displacement ([10]; dry-cleaned one time) of 60.46 mm, a load weight ([10]; dry-cleaned one time) of 33.2 kg and a specific stress ([10]; dry-cleaned one time) of 33.2 kg/L. It also gave a strain ([10]; dry-cleaned one time) of 30.23%, a stress ([10]; dry-cleaned one time) of 4.74 kg/mm^2 and a displacement ([10]; dry-cleaned two times) of 60.35 mm. It also gave a load weight ([10]; dry-cleaned two times) of 27.46 kg, a specific stress ([10]; dry-cleaned two times) of 27.46 kg/L and a strain ([10]; dry-cleaned two times) of 30.18%. The stress ([10]; dry-cleaned two times) was 3.92 kg/mm^2, the displacement ([11]; dry-cleaned five times) was 27.93 mm and the load weight ([11]; dry-cleaned five times) was 16.8 kg. For the same compound, the specific stress ([11]; dry-cleaned five times) was 16.8 kg/L, the strain ([11]; dry-cleaned five times) was 13.96% and the stress ([11]; dry-cleaned five times) was 2.39 kg/mm^2. The displacement ([11]; dry-cleaned one time) was 34.94 mm, the load weight ([11]; dry-cleaned one time) was 22.83 kg and the specific stress ([11]; dry-cleaned one time) was 22.83 kg/L. It also gave a strain ([11]; dry-cleaned one time) of 17.47%, a stress ([11]; dry-cleaned one time) of 3.25 kg/mm^2 and a displacement ([11]; dry-cleaned two times) of 32.96 mm. It also gave a load weight ([11]; dry-cleaned two times) of 21.42 kg, a specific stress ([11]; dry-cleaned two times) of 21.24 kg/L and a strain ([11]; dry-cleaned two times) of 16.48%. For the same compound, the stress ([11]; dry-cleaned two times) was 3.05 kg/mm^2.
